Assay results: the supplement of paper PMC7661543
Differences between knockout arms are mostly noise.

Test system: MDA-MB-231
Assay: relative cell number vs DMSO control (72 h) (% of DMSO); higher = less growth inhibition (more cells)
Procedure: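 QMAP-Seq: a pool of 5 breast cancer cell lines (ZR-75-1, SKBR3, HCC-38, MDA-MB-231, BT-20), each carrying 12 doxycycline-inducible Cas9 sgRNA perturbations (11 knockouts plus non-targeting sgNT), was treated with compounds for 72 h at four 10-fold doses (10 nM-10 uM or 1 nM-1 uM range). Barcodes were amplified and sequenced, and cell number was interpolated from 293T spike-in standard curves. The result is expressed as % of the median of DMSO wells. Two biological replicates.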

CCOc1ccccc1-n1c(C(C)N2CCN(C(=O)COc3ccc(Cl)cc3)CC2)nc2ccccc2c1=O (configuration not stated) [Erastin]
Conditions	relative cell number
sgRNA knockout: sgATF3, 10 nM	116
sgRNA knockout: sgATF3, 100 nM	89.3
sgRNA knockout: sgATF3, 1000 nM	96.6
sgRNA knockout: sgATF3, 10000 nM	16
sgRNA knockout: sgATF4, 10 nM	105
sgRNA knockout: sgATF4, 100 nM	91.6
sgRNA knockout: sgATF4, 1000 nM	105
sgRNA knockout: sgATF4, 10000 nM	15.6
sgRNA knockout: sgATF6, 10 nM	85.5
sgRNA knockout: sgATF6, 100 nM	105
sgRNA knockout: sgATF6, 1000 nM	95.9
sgRNA knockout: sgATF6, 10000 nM	12.6
sgRNA knockout: sgATG7, 10 nM	79.7
sgRNA knockout: sgATG7, 100 nM	74.6
sgRNA knockout: sgATG7, 1000 nM	88.7
sgRNA knockout: sgATG7, 10000 nM	12.2
sgRNA knockout: sgERN1, 10 nM	94.8
sgRNA knockout: sgERN1, 100 nM	101
sgRNA knockout: sgERN1, 1000 nM	85.3
sgRNA knockout: sgERN1, 10000 nM	21.7
sgRNA knockout: sgHSF1, 10 nM	86.7
sgRNA knockout: sgHSF1, 100 nM	83.5
sgRNA knockout: sgHSF1, 1000 nM	90.5
sgRNA knockout: sgHSF1, 10000 nM	9.86
sgRNA knockout: sgHSF2, 10 nM	93.5
sgRNA knockout: sgHSF2, 100 nM	94.3
sgRNA knockout: sgHSF2, 1000 nM	91.9
sgRNA knockout: sgHSF2, 10000 nM	20.1
sgRNA knockout: sgKEAP1, 10 nM	117
sgRNA knockout: sgKEAP1, 100 nM	91.9
sgRNA knockout: sgKEAP1, 1000 nM	75.3
sgRNA knockout: sgKEAP1, 10000 nM	24.1
sgRNA knockout: sgNFE2L2, 10 nM	84.1
sgRNA knockout: sgNFE2L2, 100 nM	97.8
sgRNA knockout: sgNFE2L2, 1000 nM	81.7
sgRNA knockout: sgNFE2L2, 10000 nM	17.3
sgRNA knockout: sgSLC35F2, 10 nM	100
sgRNA knockout: sgSLC35F2, 100 nM	76.7
sgRNA knockout: sgSLC35F2, 1000 nM	93.2
sgRNA knockout: sgSLC35F2, 10000 nM	14.69
sgRNA knockout: sgXBP1, 10 nM	96.3
sgRNA knockout: sgXBP1, 100 nM	82.7
sgRNA knockout: sgXBP1, 1000 nM	75.1
sgRNA knockout: sgXBP1, 10000 nM	14.4

O=C(Cc1ccc(-c2ccc(OCCN3CCOCC3)cc2)cn1)NCc1ccccc1 [KX2391]
Conditions	relative cell number
sgRNA knockout: sgATF3, 10 nM	119
sgRNA knockout: sgATF3, 100 nM	40.7
sgRNA knockout: sgATF3, 1000 nM	19.99
sgRNA knockout: sgATF3, 10000 nM	19.5
sgRNA knockout: sgATF4, 10 nM	117
sgRNA knockout: sgATF4, 100 nM	37.3
sgRNA knockout: sgATF4, 1000 nM	19.8
sgRNA knockout: sgATF4, 10000 nM	28.5
sgRNA knockout: sgATF6, 10 nM	101
sgRNA knockout: sgATF6, 100 nM	41.5
sgRNA knockout: sgATF6, 1000 nM	25.4
sgRNA knockout: sgATF6, 10000 nM	24
sgRNA knockout: sgATG7, 10 nM	111
sgRNA knockout: sgATG7, 100 nM	32.4
sgRNA knockout: sgATG7, 1000 nM	24.8
sgRNA knockout: sgATG7, 10000 nM	22.2
sgRNA knockout: sgERN1, 10 nM	162
sgRNA knockout: sgERN1, 100 nM	26.2
sgRNA knockout: sgERN1, 1000 nM	19.4
sgRNA knockout: sgERN1, 10000 nM	22
sgRNA knockout: sgHSF1, 10 nM	138
sgRNA knockout: sgHSF1, 100 nM	32.3
sgRNA knockout: sgHSF1, 1000 nM	17.61
sgRNA knockout: sgHSF1, 10000 nM	20.3
sgRNA knockout: sgHSF2, 10 nM	136
sgRNA knockout: sgHSF2, 100 nM	36.3
sgRNA knockout: sgHSF2, 1000 nM	24.4
sgRNA knockout: sgHSF2, 10000 nM	23.5
sgRNA knockout: sgKEAP1, 10 nM	126
sgRNA knockout: sgKEAP1, 100 nM	27.2
sgRNA knockout: sgKEAP1, 1000 nM	22
sgRNA knockout: sgKEAP1, 10000 nM	12.64
sgRNA knockout: sgNFE2L2, 10 nM	116
sgRNA knockout: sgNFE2L2, 100 nM	32.4
sgRNA knockout: sgNFE2L2, 1000 nM	20.8
sgRNA knockout: sgNFE2L2, 10000 nM	20.6
sgRNA knockout: sgSLC35F2, 10 nM	90.5
sgRNA knockout: sgSLC35F2, 100 nM	35.1
sgRNA knockout: sgSLC35F2, 1000 nM	24.9
sgRNA knockout: sgSLC35F2, 10000 nM	23.7
sgRNA knockout: sgXBP1, 10 nM	117
sgRNA knockout: sgXBP1, 100 nM	32.7
sgRNA knockout: sgXBP1, 1000 nM	15.3
sgRNA knockout: sgXBP1, 10000 nM	21.9

C=C1C[C@@H]2[C@H](CC[C@]3(C)C(=O)CC[C@@H]23)[C@@]2(C)C=CC(=O)C=C12 [Exemestane]
Conditions	relative cell number
sgRNA knockout: sgATF3, 10 nM	104
sgRNA knockout: sgATF3, 100 nM	95.4
sgRNA knockout: sgATF3, 1000 nM	89.4
sgRNA knockout: sgATF3, 10000 nM	83.2
sgRNA knockout: sgATF4, 10 nM	121
sgRNA knockout: sgATF4, 100 nM	96.9
sgRNA knockout: sgATF4, 1000 nM	116
sgRNA knockout: sgATF4, 10000 nM	93.1
sgRNA knockout: sgATF6, 10 nM	95.9
sgRNA knockout: sgATF6, 100 nM	99.61
sgRNA knockout: sgATF6, 1000 nM	83.128
sgRNA knockout: sgATF6, 10000 nM	108
sgRNA knockout: sgATG7, 10 nM	105
sgRNA knockout: sgATG7, 100 nM	81.5
sgRNA knockout: sgATG7, 1000 nM	101
sgRNA knockout: sgATG7, 10000 nM	108
sgRNA knockout: sgERN1, 10 nM	107
sgRNA knockout: sgERN1, 100 nM	90.6
sgRNA knockout: sgERN1, 1000 nM	99.3
sgRNA knockout: sgERN1, 10000 nM	84.7
sgRNA knockout: sgHSF1, 10 nM	83.4
sgRNA knockout: sgHSF1, 100 nM	107
sgRNA knockout: sgHSF1, 1000 nM	97.8
sgRNA knockout: sgHSF1, 10000 nM	105
sgRNA knockout: sgHSF2, 10 nM	98.9
sgRNA knockout: sgHSF2, 100 nM	72.7
sgRNA knockout: sgHSF2, 1000 nM	99.1
sgRNA knockout: sgHSF2, 10000 nM	96
sgRNA knockout: sgKEAP1, 10 nM	96.1
sgRNA knockout: sgKEAP1, 100 nM	97.3
sgRNA knockout: sgKEAP1, 1000 nM	107
sgRNA knockout: sgKEAP1, 10000 nM	91.1
sgRNA knockout: sgNFE2L2, 10 nM	93.7
sgRNA knockout: sgNFE2L2, 100 nM	79.3
sgRNA knockout: sgNFE2L2, 1000 nM	98.1
sgRNA knockout: sgNFE2L2, 10000 nM	73.2
sgRNA knockout: sgSLC35F2, 10 nM	109
sgRNA knockout: sgSLC35F2, 100 nM	87.7
sgRNA knockout: sgSLC35F2, 1000 nM	122
sgRNA knockout: sgSLC35F2, 10000 nM	98.6
sgRNA knockout: sgXBP1, 10 nM	123
sgRNA knockout: sgXBP1, 100 nM	101
sgRNA knockout: sgXBP1, 1000 nM	74.3
sgRNA knockout: sgXBP1, 10000 nM	93
